# Measurements published in PubChem BioAssay AID292 (DTP/NCI, 2004).
# The list does not hold the whole screen: it gathers some chemical classes. Other doses and runs of a compound may be missing. T/C is the treated group as % of the vehicle group. Some entries give survivors of the animals treated and no T/C: the source holds a T/C of zero for them, seemingly a mark for toxic or unscored doses. Some doses without a T/C left all or most animals alive at the check, yet need not have been tolerated: the source hardly ever lists a survival T/C far under the control, and the zero likely stands for such cases as well. Survivors were counted at the toxicity check, usually on the fifth day, unless a day is given; later deaths do not show. Schedules are NCI's codes, read here as Q, the interval in days (D) or hours (H), X, the number of doses. For survival time, this PubChem deposit counts one and a half times the control or more as active, and values a quarter to a half above the control carry no call in these data; other NCI protocols may use other cut-offs. Some T/C values are followed by the survivors on the day toxicity was checked, most often the fifth; without a count or a note in brackets, all were alive then.
# Tested on: B6C3F1 mice, ip Sarcoma M5076, median survival T/C
# Assay: NCI In Vivo Anticancer Drug Screen. Data for tumor model Sarcoma M5076 (intraperitoneal) in B6C3F1 mice
# Conditions: T/C endpoint: median survival time, schedule: Q04DX004 (ip), higher T/C = longer survival
# Experimental: The antitumor activity of compounds was measured in mice bearing transplantable tumors. Survival or tumor size were measured and the results are expressed as the measurement made in the treated group (T) divided by the measurement made in the vehicle treated control group (C). The tumor model used in this assay is Sarcoma M5076 (intraperitoneal) in B6C3F1 mice
# [1] = dose: 25.0 mg/kg/injection, vehicle: saline with Tween-80
# [2] = dose: 50.0 mg/kg/injection, vehicle: saline with Tween-80
# [3] = dose: 100.0 mg/kg/injection, vehicle: saline with Tween-80
# [4] = dose: 200.0 mg/kg/injection, vehicle: saline with Tween-80
# [5] = dose: 400.0 mg/kg/injection, vehicle: saline with Tween-80
compound,measurement,setting,value
ClP1(Cl)=NP(Cl)(Cl)=NP(Cl)(Cl)=NP(Cl)(Cl)=N1,T/C,"dose: 75.0 mg/kg/injection, vehicle: Klucel (hydroxypropylcellulose) (HPC)",100 % of control
same,T/C,"dose: 150.0 mg/kg/injection, vehicle: Klucel (hydroxypropylcellulose) (HPC)",101 % of control [9 of 10 alive on day 14]
same,T/C,"dose: 300.0 mg/kg/injection, vehicle: Klucel (hydroxypropylcellulose) (HPC)",97 % of control
same,T/C,"dose: 600.0 mg/kg/injection, vehicle: Klucel (hydroxypropylcellulose) (HPC)",100 % of control
same,T/C,"dose: 1200.0 mg/kg/injection, vehicle: Klucel (hydroxypropylcellulose) (HPC)",93 % of control
O=c1oc(NCCCl)nc2ccccc12,T/C,[1],106 % of control
same,T/C,[2],111 % of control
same,T/C,[3],107 % of control [9 of 10 alive on day 14]
same,T/C,[4],104 % of control
same,T/C,[5],102 % of control
NCCC(N)CSP(=O)(O)O (stereo not given),T/C,[1],94 % of control
same,T/C,[2],97 % of control
same,T/C,[3],94 % of control
same,T/C,[4],92 % of control
same,survivor count,[5],10 of 10 on day 14
